The text below walks through data of patent US10544134B2, “4-substituted coumarin derivatives and preparation methods and uses thereof” (SI CHUAN UNIVERSITY, priority 2015, dated 2020).

By IC50 is commonly meant the point on the concentration scale where inhibition reaches its midpoint. A lower IC50 goes with higher potency.

For assay [1], the system named is ovarian cancer cell A2780s. Briefly: Tumor cell proliferation inhibitory activity test in vitro (MTT). The class given is cell-based. The following applies: Homo sapiens, sensitive cells, 72 hours. From the text:
Human non-small cell lung cancer cell line NCI-H460, human small cell lung cancer cell line NCI-H446, human hepatocellular carcinoma cell strain HepG2, human colon carcinoma cell strain HCT116, human prostate cancer PC-3, human melanoma A375, colon carcinoma cell HCT-8, breast cancer cell MCF-7, ovarian cancer cell A2780s, drug-resistant ovarian cancer cell A2780/T, drug-resistant colon cancer cell HCT-8/T and doxorubicin-resistant breast cancer cell MCF-7/ADR are obtained from American Type Culture Collection (ATCC) and are cultured and preserved by the cell bank of State Key Laboratory of Biotherapy of Sichuan University. Above tumor cells are routinely cultured in DMEM culture medium containing 10% fetal bovine serum, 100 U·mL-1 penicillin and 100 mg·L−1 streptomycin, and in an incubator at 37° C. and with saturated humidity and 5% CO2 concentration. […]
Discard the supernatant after 72 hours, add 200 μL freshly prepared serum-free medium containing 0.2 mg/mL MTT into each well, continue to incubate at 37° C. for 1-4 hours, then stop incubation, carefully remove the culture supernatant in the wells and add 200 uL DMSO (dimethyl sulfoxide), oscillate with a miniature ultrasonic oscillator for 15-20 minutes to make the crystal fully dissolved and mixed. Determine OD values using a microplate reader at 570 nm with a reference wavelength of 450 nm. […]

In assay [2] the test system is HCT-8/V. The description is as above. The following applies: Homo sapiens, drug-resistant cells, 72 hours, cells marked (μM). The class given is cell-based.

As to `COc1cc2c(c(OC)c1OC)-c1ccc(OC)c(=O)cc1[C@@H](NC(C)=O)CC2` [Colchicine, colchicine], the IC50 came out at 30.8 ± 9.88 nM in assay [1] and 0.144 ± 0.032 µM in assay [2].
